In all, about 390,000 compounds went through this assay and about 910 (0.23%) were called active. This list was built around the results that the source calls inconclusive (neither active nor inactive); the mix of calls is not that of the screen. The call rests on the fitted dose curve; in most records, active means well fitted inhibition curve with a large enough effect; inconclusive means small, poorly fitted or top-dose-only effect; inactive means no such curve, though single readings can be large or run the other way. A potency beside an inconclusive call is a rough fit, not a confirmed value.
Biological target: Ubiquitin carboxyl-terminal hydrolase 1 (Homo sapiens) (UniProt O94782)
Experiment: Inhibitors of USP1/UAF1: Primary Screen; further: nearly all actives have a fitted effect of over 60% in size
Conditions: recombinant USP1/UAF1, Ub-Rhodamine cleavage fluorescence; activity change, negative = inhibition: at 57.1 µM (top of the series)
How it was run: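 In this screen, compounds sit with the deubiquitinase complex (1nM) for 15 min at room temperature before Ub-Rho is added at 150nM final. Fluorescence rise is then followed for 6 reads every 60 seconds.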
On the % scale 0 is the no-effect control and ±100 the full control effect; potency means the concentration at half of the fitted maximal effect.

The chains behind the UniProt entries cited, without tags or fusion partners. Where a name states a change or a piece, a line headed by the entry shows the natural chain unless it says otherwise.
UniProt O94782: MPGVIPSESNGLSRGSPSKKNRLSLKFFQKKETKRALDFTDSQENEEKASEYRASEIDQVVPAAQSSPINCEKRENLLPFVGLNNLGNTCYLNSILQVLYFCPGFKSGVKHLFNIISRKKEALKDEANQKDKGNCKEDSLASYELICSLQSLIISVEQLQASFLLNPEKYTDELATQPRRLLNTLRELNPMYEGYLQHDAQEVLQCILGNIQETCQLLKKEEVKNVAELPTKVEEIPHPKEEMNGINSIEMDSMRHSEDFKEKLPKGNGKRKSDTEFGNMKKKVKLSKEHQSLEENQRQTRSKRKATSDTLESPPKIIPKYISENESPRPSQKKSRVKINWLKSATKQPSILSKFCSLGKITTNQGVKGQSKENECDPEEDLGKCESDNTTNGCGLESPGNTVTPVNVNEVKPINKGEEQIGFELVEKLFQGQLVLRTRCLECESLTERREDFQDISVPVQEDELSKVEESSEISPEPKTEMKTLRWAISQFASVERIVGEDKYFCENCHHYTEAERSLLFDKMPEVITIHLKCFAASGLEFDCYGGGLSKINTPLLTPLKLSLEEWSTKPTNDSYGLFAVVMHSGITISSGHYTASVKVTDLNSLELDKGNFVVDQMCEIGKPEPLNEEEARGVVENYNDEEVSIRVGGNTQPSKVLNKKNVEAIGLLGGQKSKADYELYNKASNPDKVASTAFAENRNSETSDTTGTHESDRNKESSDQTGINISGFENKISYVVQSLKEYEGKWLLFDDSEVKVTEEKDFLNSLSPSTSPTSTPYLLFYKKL

Compound | Potency | activity change, negative = inhibition
Cc1[nH][nH]c(=O)c1C(c1c(C)[nH][nH]c1=O)c1cn(Cc2ccc(F)cc2)c2ccccc12 | inconclusive: 25.1 µM [inhibitor, partial curve] | 
CN(C/C=C/C#CC(C)(C)C)Cc1cccc2ccccc12 | inconclusive: 7.94 µM [inhibitor, partial curve, poor fit] | 
Cc1noc(C)c1COC(=O)CCCNC(=O)c1ccc(Cl)cc1 |  | inactive: -13.7%
Cc1ccc(-c2cn3c(n2)SCC3)cc1 | inconclusive: 17.8 µM [inhibitor, partial curve, poor fit] | 
COC(=O)c1cc2sc(C)cc2n1Cc1cccc(OC)c1 | inconclusive: 1.41 µM [inhibitor, full curve] | 
COc1ccc(CN=Cc2c(O)[nH]c3ccccc23)cc1 | inconclusive: 35.5 µM [inhibitor, partial curve, poor fit] | 
Cc1nc(CN(C)C(=O)c2cc(COc3ccc4ncccc4c3)on2)cs1 |  | inactive: -20.7%
COc1ccc(C2Nc3ccccc3-c3cc(C)nn32)cc1OC (stereo not drawn) | inconclusive: 1.58 µM [inhibitor, full curve, poor fit] | 
CC1(C)O[C@@H]2[C@H](O1)[C@@H](CO)O[C@H]2n1cnc2c(N)ncnc21 | inconclusive: 11.2 µM [inhibitor, partial curve, poor fit] | 
Cc1ccc(N2CC(NC(=O)c3cccs3)CC2=O)cc1C (stereo not drawn) | inconclusive: 7.94 µM [inhibitor, partial curve, poor fit] | 
CC(C)(C=O)C1=CC(=O)c2ccccc2C1=O | inconclusive: 35.5 µM [inhibitor, single point] | 
CNc1ncnc2c1cnn2-c1ccc(C)c(C)c1 | inconclusive: 3.98 µM [inhibitor, full curve] | 
Cc1noc(COc2ccccc2OCC(N)=O)n1 | inconclusive: 15.8 µM [inhibitor, partial curve] | 
Cc1ccccc1CN(C)C[C@@H]1OCc2cnnn2CCCC(=O)N([C@H](C)CO)C[C@H]1C | inconclusive: 0.282 µM [inhibitor, full curve, poor fit] | 
CCC(=O)Nc1nc(C)c(-c2csc(Nc3ccc(C(=O)O)cc3)n2)s1 | inconclusive: 44.7 µM [inhibitor, partial curve] | 
COc1ccc(OC)c(CNC(=O)C(C)n2c(C)c3cnn(-c4ccccc4)c(=O)c3c2C)c1 (stereo not drawn) | inconclusive: 1.26 µM [inhibitor, full curve, poor fit] | 
CC1CCC(NC(=O)CCS(=O)(=O)c2ccc3c(c2)oc(=O)n3C)CC1 (stereo not drawn) |  | inactive: -12%
CCc1ccc(C(=O)c2cn(CC(=O)Nc3ccc4c(c3)OCO4)c3ccc(OC)cc3c2=O)cc1 | inconclusive: 31.6 µM [inhibitor, partial curve] | 
O=C(O)c1ccc(COc2ccc([N+](=O)[O-])cc2Cl)cc1 |  | inactive: -21.9%
COc1ccccc1N1N=C(C(=O)c2ccccc2)C2C(=O)N(c3ccc(Br)cc3)C(=O)C21 (stereo not drawn) | inconclusive: 17.8 µM [inhibitor, partial curve, poor fit] | 
CN1C(=O)c2ccccc2Sc2ccc(NC(=O)c3ccccc3F)cc21 | inconclusive: 44.7 µM [inhibitor, partial curve, poor fit] | 

Compound | Potency | activity change, negative = inhibition
CCCCCS(=O)(=O)c1oc(-c2cccs2)nc1S(=O)(=O)c1ccc(C)cc1 | inconclusive: 31.6 µM [inhibitor, single point] | 
CCCCNC(=S)N(C)/N=C/c1ccc(OCC(=O)Nc2c(C)cc(C)cc2C)c(OC)c1 |  | inactive: 0.167%
CC(C)C(NC(=O)c1ccccc1F)C(=O)NCC(c1ccco1)N1CCCCC1 (stereo not drawn) | inconclusive: 12.6 µM [inhibitor, partial curve] | 
COc1ccc(S(=O)(=O)N2CCN(c3ccccc3)CC2)cc1 | inconclusive: 4.47 µM [inhibitor, partial curve] | 
C/C(=N/NC(=O)c1ccc(Br)o1)c1cccc(NC(=O)c2ccc(C)o2)c1 |  | inactive: -3.91%
COc1ccc(-c2csc3ncnc(N4CCN(c5ccccc5O)CC4)c23)cc1 |  | inactive: 2.15%
O=C(c1ccoc1)N1CCN(c2cc(-c3ccco3)nc3cc(-c4ccccc4)nn23)CC1 | inconclusive: 8.91 µM [inhibitor, full curve] | 
N=c1ccn(CC(=O)c2ccc(-c3ccccc3)cc2)cc1 |  | inactive: -2.66%
O=C1C=CC(=Nc2cccc3c2C(=O)c2ccccc2-3)O1 | inconclusive: 39.8 µM [inhibitor, single point] | 
Cc1cc(N2CCCCC2)nc2ccc(NC(=O)c3cccc(Cl)c3)cc12 |  | inactive: -11%
CCOc1ccc(CNS(=O)(=O)c2cc3c(cc2C)NC(=O)CO3)cc1OC | inconclusive: 1.58 µM [inhibitor, full curve] | 
O=C1c2cc(CO)cc(O)c2C(=O)c2c(O[C@@H]3OC(CO)[C@@H](O)[C@@H](O)[C@@H]3O)cccc21 (stereo partly drawn) |  | inactive: -2.45%
CCOc1ccccc1C(=O)Nc1ccc2nc(N(CC)CC)cc(C)c2c1 | inconclusive: 10 µM [inhibitor, full curve] | 
CCC(=C(c1ccc(OC)cc1)c1ccc(OC)cc1)c1cn(CC(O)CN(CCO)CCO)c2ccccc12 (stereo not drawn) |  | inactive: -21%
O=S(=O)(Nc1nc2ccccc2nc1Nc1ccc2c(c1)OCCO2)c1cccs1 | inconclusive: 22.4 µM [inhibitor, partial curve] | 
CCC(=O)NC1=C(Nc2ccc(N)cc2)C(=O)c2ccccc2C1=O | inconclusive: 1.26 µM [inhibitor, full curve, poor fit] | 
COc1cccc(/C=C2\Oc3ccc(O)cc3C2=O)c1O | inconclusive: 50.1 µM [inhibitor, partial curve, poor fit] | 
Cc1cc(C)c(NC(=O)CSc2nc(=O)[nH]c3c2CCCC3)c(C)c1 | inconclusive: 7.08 µM [inhibitor, full curve, poor fit] | 
O=C(NCCc1ccccc1)c1cc(-c2ccc(Cl)cc2)on1 | inconclusive: 0.251 µM [inhibitor, full curve] | 
COc1cccc(NC(=O)Nc2cccc(-c3cn4cccnc4n3)c2)c1 | inconclusive: 8.91 µM [inhibitor, full curve, poor fit] | 
CC(=O)N1CCc2cc(S(=O)(=O)CCC(=O)N3CCN(c4cccc(C)c4C)CC3)ccc21 | inconclusive: 7.08 µM [inhibitor, full curve] | 

Reprinted at random: two compounds from above
Compound | Potency | activity change, negative = inhibition
Cc1noc(COc2ccccc2OCC(N)=O)n1 | inconclusive: 15.8 µM [inhibitor, partial curve] | 
CN1C(=O)c2ccccc2Sc2ccc(NC(=O)c3ccccc3F)cc21 | inconclusive: 44.7 µM [inhibitor, partial curve, poor fit] | 

Continued.

Compound | Potency | activity change, negative = inhibition
COc1ccc2cc3cc(C(=O)Nc4ccc5c(c4)OCO5)oc3nc2c1 | inconclusive: 35.5 µM [inhibitor, partial curve] | 
Cc1ccsc1C(=O)C1CCCN(Cc2cccn2-c2ccc(Cl)cn2)C1 (stereo not drawn) |  | inactive: -5.43%
Cc1sc2ncn(CC(=O)N(C)c3ccc(Br)cc3)c(=O)c2c1S(=O)(=O)N1CCC(C)CC1 | inconclusive: 2.51 µM [inhibitor, full curve, poor fit] | 
C=CCNC(=O)C1CC2Cn3c(nc4ccccc43)C2N1C (stereo not drawn) | inconclusive: 89.1 µM [inhibitor, partial curve, poor fit] | 
CCOC(=O)c1ccc(Nc2nc3ccccc3nc2NS(=O)(=O)c2ccc(Cl)cc2)cc1 | inconclusive: 6.31 µM [inhibitor, partial curve] | 
CCN1CCN(CCCNC(=O)c2cnn(-c3ccccc3)c2C2CCN(C(=O)OC(C)(C)C)CC2)CC1 | inconclusive: 35.5 µM [inhibitor, partial curve] | 
COc1ccccc1NC(=O)c1c(NCc2ccc(OC)c(OC)c2OC)sc2c1CCCC2 | inconclusive: 44.7 µM [inhibitor, partial curve, poor fit] | 
COCCCn1c(=O)/c(=C/c2ccccc2OC(C)C)s/c1=C(\C#N)C(=O)Nc1ccc(C(=O)O)cc1 | inconclusive: 39.8 µM [inhibitor, partial curve, poor fit] | 
COc1ccc(C2COc3cc(O)ccc3C2)c(OC)c1O (stereo not drawn) |  | inactive: 2.66%
CC(OC(=O)CCN=C1NS(=O)(=O)c2ccccc21)C(=O)NCc1ccccc1 (stereo not drawn) | inconclusive: 5.62 µM [inhibitor, full curve] | 
O=C(NCCCN1CCOCC1)c1cccc(S(=O)(=O)N2CCN(c3ccccc3)CC2)c1 |  | inactive: -17.4%
COc1ccc(-c2cc(C(=O)Nc3cccnc3Cl)no2)cc1OC | inconclusive: 0.447 µM [inhibitor, full curve, poor fit] | 
Cc1cc2nn(-c3ccccc3)nc2cc1NC(=O)c1cccc2c(Cl)cccc12 | inconclusive: 5.01 µM [inhibitor, partial curve] | 
CC[n+]1c(/C=C/c2ccc(N(C)C)cc2)ccc2ccccc21 | inconclusive: 12.6 µM [inhibitor, partial curve] | 
COc1ccc(N(CC(=O)N/N=C/c2cccs2)S(=O)(=O)c2ccccc2)cc1 | inconclusive: 39.8 µM [inhibitor, partial curve, poor fit] | 
COCC(=O)Nc1c(I)c(C(=O)NCC(O)CO)c(I)c(C(=O)N(C)CC(O)CO)c1I (stereo not drawn) | inconclusive: 316 µM [inhibitor, partial curve, poor fit] | 
O=c1[nH]c(/C=C/c2ccccc2)c([N+](=O)[O-])c(=O)[nH]1 |  | inactive: -34%
COc1ccc(N2C(=O)C3[C@@H](C2=O)C2(Cl)C(Cl)=C(Cl)C3(Cl)C2(OC)OC)cc1 (stereo partly drawn) |  | inactive: -3.13%
CCOC(=O)Nc1ccc(NCc2ccc(F)cc2)nc1N | active: 22.4 µM | 
Cc1csc2nc(-c3cccc(NC(=O)C(C)C)c3)cn12 | inconclusive: 7.94 µM [inhibitor, partial curve, poor fit] | 
Cc1cccc(CCNC(=O)c2sc3nc4n(c(=O)c3c2C)CCCC4)c1 | inconclusive: 7.08 µM [inhibitor, single point] | 

Source: PubChem BioAssay AID743255 (National Center for Advancing Translational Sciences (NCATS), 2014)
